Measurements taken from patent US5506354A, “Imidazolylpiperazinyl steroids” (The Upjohn Company, priority 1992, dated 1996).
Structures can show the parent of a compound that is named as a salt. For some assays here: At least one compound was matched to its structure with a doubt left. Some entries repeat one wording, which the source may state once for all of them. Some entries share one result that the patent states for a list of compounds.

The molecules below were run on MDA formation (assay: Malonyldialdehyde (MDA) Formation Assay (rat brain synaptosomes)). Details: 10 min at 37°, pH 7.0; active = 50% or more at 200 μM or less.
Assay type: biochemical
Procedure: Since lipid peroxidation is involved in the pathophysiology of center nervous system trauma, compounds which inhibit MDA formation are useful in treating the conditions listed below.
While not necessary to determine MDA formation, the above assays have been modified as follows: rat brain synaptosomes are prepared as described in the Example about the conjugated diene assay, except that the final wash of the synaptosomes and final suspension are in physiological (normal) saline in which the pH has been adjusted to 7.0. The synaptosomes are incubated for 10 min at 37° in physiological (normal) saline pH 7.0 (total volume=100 ul) containing; 10 ul synaptosomal suspension, 10% DMSO plus or minus drug, 150 uM Fe^+++ and 50 uM Fe++. The incubation is started by the rapid addition of iron to the otherwise complete reaction. The iron solutions are prepared fresh as ferric chloride and ferrous ammonium sulfate in argon-purged water. Following the 10 min incubation, the reaction is stopped by the addition of 500 ul ice-cold 12% trichloroacetic acid prepared in 0.5N hydrochloric acid. Water (300 ul) is then added along with 100 ul of freshly prepared thiobarbituric acid (3.3% in 0.5N sodium hydroxide) and 10 ul of 5 mM desferrioxamine. The sample is then heated in a boiling water bath for 20 minutes. The samples are cooled and centrifuged for 15 minutes at 1500×g and the absorbence of the supernatant fraction is read at 532 nm. The % inhibition of MDA formation is calculated by dividing the absorbance of sample containing drug by the absorbence of samples incubated without drug. Reaction blanks are samples incubated in the absence of iron. A compound that inhibits MDA formation by 50% or more at a concentration of 200 μM or less is considered "active".

**Q.** How did the “inhibition of MDA formation (activity in words)” value (“inhibition of MDA formation” below) turn out when CCNc1cccnc1N1CCN(CC(=O)[C@H]2[C@H](C)C[C@H]3[C@@H]4CCC5=CC(=O)C=C[C@]5(C)C4=CC[C@@]32C)CC1 [Example 127, 21-[4-[3-(Ethylamino)-2-pyridinyl]piperazinyl]-16α-methylpregna-1,4,9(11)-triene-3,20-dione hydrochloride] was run?
**A.** demonstrate such activity

**Q.** For C[C@]12C=CC(=O)C=C1CC[C@@H]1C2=CC[C@]2(C)[C@@H](C(=O)CN3CCN(c4cc(N5CCCC5)nc(N5CCCC5)n4)CC3)CC[C@@H]12.Cl.Cl [Example 111, 21-[4-(2,6-Bis(1-pyrrolidinyl)-4-pyrimidinyl)-1-piperazinyl]pregna-1,4,9(11)-triene-3,20-dione dihydrochloride], which “inhibition of MDA formation” value is on record?
**A.** demonstrate such activity

**Q.** With CCN(CC)c1cc(N2CCN(CC(=O)[C@@]3(O)CC[C@H]4[C@@H]5CCC6=CC(=O)CC[C@]6(C)[C@H]5[C@H](O)C[C@@]43C)CC2)nc(N(CC)CC)n1 [Example 50, 21-[4-[2,6-bis(diethylamino)4-pyrimidinyl]-1-piperazinyl]-11α,17α-dihydroxypregn-4-ene-3,20-dione hydrochloride] as the molecule, how does the “inhibition of MDA formation” value read?
**A.** demonstrate such activity

**Q.** Which “inhibition of MDA formation” value does the source give for COc1ccc(CCN(CC(=O)[C@@]2(O)CC[C@H]3[C@@H]4CCC5=CC(=O)CC[C@]5(C)C4=CC[C@@]32C)Cc2ccc(N(C)C)cc2)cc1OC [Example 51, 17α-hydroxy-21-[[2-(3,4-dimethoxyphenyl)ethyl]-4-(dimethylamino)-phenyl]methyl]amino]pregna-4,9(11)-3,20-dione hydrochloride] here?
**A.** demonstrate such activity

**Q.** With C[C@]12C=CC(=O)C=C1CC[C@@H]1C2=CC[C@]2(C)[C@@H](C(=O)CN3CCN(c4ccccn4)CC3)CC[C@@H]12.Cl.O [Example 49, 21-[4-(2-pyridinyl)-1-piperazinyl]pregna-1,4,9(11)-triene-3,20-dione hydrochloride hydrate] as the molecule, how does the “inhibition of MDA formation” value read?
**A.** demonstrate such activity

**Q.** For C[C@]12C=CC(=O)C=C1CC[C@@H]1C2=CC[C@]2(C)C(C(=O)CN3CCN(c4cc(N5CCCC5)nc(N5CCCC5)n4)CC3)=CC[C@@H]12 [Example 113, 21-[4-(2,6-Bis(1-pyrrolidinyl)-4-pyrimidinyl)-1-piperazinyl]pregna-1,4,9(11),16-tetraene-3,20 dione methanesulfonate, hydrate], which “inhibition of MDA formation” value is on record?
**A.** demonstrate such activity

**Q.** How did the “inhibition of MDA formation” value turn out when CC(CN1CCN(c2cc(N3CCCC3)nc(N3CCCC3)n2)CC1)[C@H]1CC[C@H]2[C@@H]3CCC4=CC(=O)C=C[C@]4(C)[C@H]3CC[C@]12C.CS(=O)(=O)O.O (some centres unmarked) [Example 112, 21-[4-(2,6-Bis(1-pyrrolidinyl)-4-pyrimidinyl)-1-piperazinyl]-20-methylpregna-1,4-dien-3-one methanesulfonate, hydrate] was run?
**A.** demonstrate such activity

**Q.** How did the “inhibition of MDA formation” value turn out when C[C@]12CCC(=O)C=C1CC[C@@H]1C2=CC[C@]2(C)[C@@H](C(=O)CN3CCN(c4cc(N5CCCC5)nc(N5CCCC5)n4)CC3)CC[C@@H]12.Cl.Cl [Example 95, 21-[4-[2,6-bis(1-pyrrolidinyl)-4-pyrimidinyl]-1-piperazinyl]pregna-4,9(11)-diene-3,20-dione dihydrochloride] was run?
**A.** demonstrate such activity

**Q.** Which “inhibition of MDA formation” value does the source give for CCN(CC)c1cc(N2CCN(CC(=O)[C@H]3CC[C@H]4[C@@H]5CCC6=CC(=O)CC[C@]6(C)[C@H]5[C@H](O)C[C@]34C)CC2)nc(N(CC)CC)n1.Cl.Cl [Example 69, 21-[4-[2,6-bis(diethylamino)-4-pyrimidinyl]-1-piperazinyl]-11α-hydroxypregn-4-ene-3,20-dione dihydrochloride] here?
**A.** demonstrate such activity

**Q.** For CCN(CC)c1cc(N2CCN(CC(=O)[C@@]3(O)CC[C@H]4[C@@H]5CCC6=CC(=O)C=C[C@]6(C)C5=CC[C@@]43C)CC2)nc(N(CC)CC)n1.Cl.Cl.O [Example 75, 21-[4-[2,6-bis(diethylamino)4-pyrimidinyl]-1-piperazinyl]-17α-hydroxypregna-1,4,9(11)-triene-3,20-dione dihydrochloride hydrate], which “inhibition of MDA formation” value is on record?
**A.** demonstrate such activity

**Q.** C[C@]12C=CC(=O)C=C1CC[C@@H]1C2=CC[C@@]2(C)[C@H]1CC[C@]2(O)C(=O)CN1CCN(c2cc(N3CCCC3)nc(N3CCCC3)n2)CC1.Cl.Cl.O [Example 74, 17α-hydroxy-21-[4-[2,6-di-(1-pyrrolidinyl)-4-pyrimidinyl]-1-piperazinyl] pregna-1,4,9(11)-triene-3,20-dione dihydrochloride hydrate] was tested. Which “inhibition of MDA formation” value did it give?
**A.** demonstrate such activity

**Q.** C[C@]12CC[C@H]3[C@@H](CCC4=CC(=O)C=C[C@@]43C)[C@@H]1CC[C@@H]2C(=O)CN1CCN(c2cc(N3CCCC3)nc(N3CCCC3)n2)CC1.Cl.Cl [Example 97, 21-[4-[2,6-di-(1-pyrrolidinyl)-4-pyrimidinyl]-1-piperazinyl]-pregna-1,4-diene-3,20-dione dihydrochloride] was tested. Which “inhibition of MDA formation” value did it give?
**A.** demonstrate such activity

**Q.** With C[C@@H]1C[C@H]2[C@@H]3CCC4=CC(=O)C=C[C@]4(C)C3=CC[C@]2(C)[C@@]1(O)C(=O)CN1CCN(c2cc(N3CCCC3)nc(N3CCCC3)n2)CC1 [Example 73, 17α-hydroxy-16α-methyl-21-[4-[2,6-bis-(1-pyrrolidinyl)-4-pyrimidinyl]-1-piperazinyl]pregna-1,4,9(11)-triene-3,20-dione (E)-2-butenedioate (1:1) salt] as the molecule, how does the “inhibition of MDA formation” value read?
**A.** demonstrate such activity

**Q.** Which “inhibition of MDA formation” value does the source give for CCN(CC)c1ccc(N(C)C)c(N2CCN(CC(=O)[C@@]3(O)CC[C@H]4[C@@H]5CCC6=CC(=O)CC[C@]6(C)C5=CC[C@@]43C)CC2)n1.Cl.Cl [Example 96, 21-[4-[6-(diethylamino)-3-(dimethylamino)-2-pyridinyl]-1-piperazinyl]-17α-hydroxypregna-4,9(11)-diene-3,20-dione dihydrochloride] here?
**A.** demonstrate such activity

**Q.** How did the “inhibition of MDA formation” value turn out when COc1ccc(CCN(CC(=O)[C@@]2(O)CC[C@H]3[C@@H]4CCC5=CC(=O)CC[C@]5(C)C4=CC[C@@]32C)Cc2ccc(O)c(O)c2)cc1OC [Example 67, 17α-hydroxy-21-[[(3,4-dihydroxy-phenyl)methyl][2-(3,4-dimethoxy-phenyl)ethyl]amino]pregna-4,9(11)-diene-3,20-dione (E)-2-butenedioate (1:1) salt] was run?
**A.** demonstrate such activity

**Q.** CCN(CC)c1ccc(N)c(N2CCN(CC(=O)[C@@]3(O)CC[C@H]4[C@@H]5CCC6=CC(=O)CC[C@]6(C)C5=CC[C@@]43C)CC2)n1.Cl.Cl [Example 68, 21-[4-[3-amino-6-(diethylamino)-2-pyridinyl]-1-piperazinyl]-17α-hydroxypregna-4,9(11)-diene 3,20-dione dihydrochloride] was tested. Which “inhibition of MDA formation” value did it give?
**A.** demonstrate such activity

What follows are molecules tested on angiogenesis (assay: Chick embryo assay of Folkman (inhibition of angiogenesis / tumor growth)). Details: 50 μg/10 μl in the presence of heparin.
Assay type: in vivo
Procedure: According to this procedure compounds which are considered to be "active" (i.e. antiangiogenic) give an avascular zone of 4 mm or greater in some embryos when tested at 50 μg/10 μl in the presence of 50 μg/10μ of heparin.

**Q.** For C[C@H]1C[C@H]2[C@@H]3CC[C@H]4CC(=O)CC[C@]4(C)C3=CC[C@]2(C)[C@@]1(O)C(=O)CN1CCN(c2ccccn2)CC1.Cl.Cl.O [Example 44, 17α-hydroxy-16β-methyl-21-[4-(2-pyridinyl)-1-piperazinyl]-5α-pregn-9(11)-ene-3,20-dione dihydrochloride hydrate], which “inhibition of angiogenesis (activity in words)” value is on record?
**A.** demonstrate inhibition of angiogenesis
